Source: patent publication US20220204629A1
Results are given in words; binding and its absence hold for the method and conditions named. Some entries that bind do so weakly or less than the wild type. Tags and fused reporters may be left off the sequences shown.

Sequences of proteins named here, by UniProt entry; tags and fusion partners are left off. A change or cut given only in a name is not applied to a line headed by its entry. A line that says so, or that is headed by a name, gives the form on record, which may keep a tag or linker.
recombinant, full length human Galectin-9 (R&D Systems 2045-GA) (O00182, form named): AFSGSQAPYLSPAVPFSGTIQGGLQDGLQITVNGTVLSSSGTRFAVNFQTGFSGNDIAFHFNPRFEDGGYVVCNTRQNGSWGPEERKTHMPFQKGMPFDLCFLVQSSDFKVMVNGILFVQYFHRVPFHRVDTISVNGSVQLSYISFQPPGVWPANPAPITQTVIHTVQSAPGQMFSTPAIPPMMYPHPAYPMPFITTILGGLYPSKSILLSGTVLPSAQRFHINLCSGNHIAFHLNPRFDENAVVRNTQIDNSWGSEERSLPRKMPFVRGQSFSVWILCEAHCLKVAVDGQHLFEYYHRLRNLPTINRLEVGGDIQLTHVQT

Target: recombinant, full length human Galectin-9 (R&D Systems 2045-GA) (human) (UniProt O00182)
Experiment: ELISA, full length galectin-9 immobilized

B1: CD206 human recombinant protein, His-tagged (receptor, UniProt P22897 19-1383, looked up)
chain: LLDTRQFLIYNEDHKRCVDAVSPSAVQTAACNQDAESQKFRWVSESQIMSVAFKLCLGVPSKTDWVAITLYACDSKSEFQKWECKNDTLLGIKGEDLFFNYGNRQEKNIMLYKGSGLWSRWKIYGTTDNLCSRGYEAMYTLLGNANGATCAFPFKFENKWYADCTSAGRSDGWLWCGTTTDYDTDKLFGYCPLKFEGSESLWNKDPLTSVSYQINSKSALTWHQARKSCQQQNAELLSITEIHEQTYLTGLTSSLTSGLWIGLNSLSFNSGWQWSDRSPFRYLNWLPGSPSAEPGKSCVSLNPGKNAKWENLECVQKLGYICKKGNTTLNSFVIPSESDVPTHCPSQWWPYAGHCYKIHRDEKKIQRDALTTCRKEGGDLTSIHTIEELDFIISQLGYEPNDELWIGLNDIKIQMYFEWSDGTPVTFTKWLRGEPSHENNRQEDCVVMKGKDGYWADRGCEWPLGYICKMKSRSQGPEIVEVEKGCRKGWKKHHFYCYMIGHTLSTFAEANQTCNNENAYLTTIEDRYEQAFLTSFVGLRPEKYFWTGLSDIQTKGTFQWTIEEEVRFTHWNSDMPGRKPGCVAMRTGIAGGLWDVLKCDEKAKFVCKHWAEGVTHPPKPTTTPEPKCPEDWGASSRTSLCFKLYAKGKHEKKTWFESRDFCRALGGDLASINNKEEQQTIWRLITASGSYHKLFWLGLTYGSPSEGFTWSDGSPVSYENWAYGEPNNYQNVEYCGELKGDPTMSWNDINCEHLNNWICQIQKGQTPKPEPTPAPQDNPPVTEDGWVIYKDYQYYFSKEKETMDNARAFCKRNFGDLVSIQSESEKKFLWKYVNRNDAQSAYFIGLLISLDKKFAWMDGSKVDYVSWATGEPNFANEDENCVTMYSNSGFWNDINCGYPNAFICQRHNSSINATTVMPTMPSVPSGCKEGWNFYSNKCFKIFGFMEEERKNWQEARKACIGFGGNLVSIQNEKEQAFLTYHMKDSTFSAWTGLNDVNSEHTFLWTDGRGVHYTNWGKGYPGGRRSSLSYEDADCVVIIGGASNEAGKWMDDTCDSKRGYICQTRSDPSLTNPPATIQTDGFVKYGKSSYSLMRQKFQWHEAETYCKLHNSLIASILDPYSNAFAWLQMETSNERVWIALNSNLTDNQYTWTDKWRVRYTNWAADEPKLKSACVYLDLDGYWKTAHCNESFYFLCKRSDEIPATEPPQLPGRCPESDHTAWIPFHGHCYYIESSYTRNWGQASLECLRMGSSLVSIESAAESSFLSYRVEPLKSKTNFWIGLFRNVEGTWLWINNSPVSFVNWNTGDPSGERNDCVALHASSGFWSNIHCSSYKGYICKRPKIIDAKPTHELLTTKADTRKMDPSK
binding: binds
